Data published in patent publication US8962623B2, “Aminopyrazine compounds” (Locus Pharmaceuticals, Inc., priority 2011, dated 2015).
The structures given here were assigned with low confidence; some may be wrong.

Protein sequences, listed by entry. Tags and fused reporters are not part of them.
UniProt Q08881, whole entry: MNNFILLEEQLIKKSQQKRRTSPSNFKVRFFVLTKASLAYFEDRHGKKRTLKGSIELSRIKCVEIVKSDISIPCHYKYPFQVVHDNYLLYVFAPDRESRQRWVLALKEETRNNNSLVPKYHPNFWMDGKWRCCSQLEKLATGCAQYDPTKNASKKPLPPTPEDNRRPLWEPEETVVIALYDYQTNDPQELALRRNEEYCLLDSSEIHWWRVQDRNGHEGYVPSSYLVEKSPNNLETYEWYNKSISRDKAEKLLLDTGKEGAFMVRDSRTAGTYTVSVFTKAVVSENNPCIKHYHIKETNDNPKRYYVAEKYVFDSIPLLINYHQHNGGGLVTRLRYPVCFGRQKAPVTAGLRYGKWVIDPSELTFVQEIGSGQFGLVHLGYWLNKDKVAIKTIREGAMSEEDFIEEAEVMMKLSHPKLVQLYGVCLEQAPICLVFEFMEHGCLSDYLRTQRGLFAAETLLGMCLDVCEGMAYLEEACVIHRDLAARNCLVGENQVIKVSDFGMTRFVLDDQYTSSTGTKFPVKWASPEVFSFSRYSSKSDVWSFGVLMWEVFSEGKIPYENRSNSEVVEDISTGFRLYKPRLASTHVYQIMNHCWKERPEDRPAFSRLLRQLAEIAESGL

Target: Itk (Homo sapiens, UniProt Q08881)
Assay: Itk in vitro inhibitory activity in radioassay (33P incorporation into Phospholipase C-γ-1)
Settings: read-out: IC50 over Itk, 20 μM ATP solution
Procedure: The Itk protein kinase activity (Invitrogen) was determined by measuring the incorporation of ^33P from γ-[^33P] ATP into the Phospholipase C-γ-1 substrate (Calbiochem). The dilution series of the compound of the present invention were dissolved in DMSO. The diluted solution (1 μl) of the compounds of the present invention in DMSO was added to a 96-well assay plate. Additionally, Itk kinase solution (39 μL) composed of 3.2 nM Itk (Invitrogen) in reaction buffer (12.5 mM Tris (pH 7.5), 0.01% Triton X-100, 5% glycerol, 10 mM MgCl2, 1 mM EGTA, 5 mM glycerol 2-phosphate, 2 mM DTT and 0.5 mM sodium orthovanadate) was added to the assay plates. The solution was pre-incubated for 20 minutes at 30° C. with shaking. Then ATP/substrate solution (10 μl) composed of […] Phospholipase C-γ-1 (Calbiochem), 1.5% v/v γ-^33P-ATP (PerkinElmer), 20 μM ATP and reaction buffer was added. After incubating at 30° C. with shaking for 70 minutes, the reaction was stopped by adding 10 μl of 0.6 M phosphoric acid to each well. The each reaction from the assay plate was transferred and captured on a phosphocellulose 96-well plate (Millipore MAPHNOB). The reaction mixture was analyzed on the PerkinElmer TopCount NXT HTS 96-well Liquid Scintillation counter.
Inhibition rate (%) of the compound was calculated with the following formula: Inhibition rate(%)={1−(Bx−B100)/(B0−B100)}×100 […]

Cc1c(C(=O)Nc2ccc(-c3cc(-c4cccc(-c5cc[nH]n5)c4)cnc3N)cc2)c(=O)n(-c2cccc(Cl)c2)n1C
IC50: 3 nM
